These are yes or no findings as the source states them, for the method shown. In cells and extracts the contact can be indirect. These calls come from enrichment with a bait or labelling near it, and not all partners need be listed. Sequences can lack the tags named with a protein.
B1: LUC7L2 (Luc7-like 2 pre-mRNA splicing factor) (protein, UniProt Q9Y383 1-392)
chain: MSAQAQMRAMLDQLMGTSRDGDTTRQRIKFSDDRVCKSHLLNCCPHDVLSGTRMDLGECLKVHDLALRADYEIASKEQDFFFELDAMDHLQSFIADCDRRTEVAKKRLAETQEEISAEVAAKAERVHELNEEIGKLLAKVEQLGAEGNVEESQKVMDEVEKARAKKREAEEVYRNSMPASSFQQQKLRVCEVCSAYLGLHDNDRRLADHFGGKLHLGFIEIREKLEELKRVVAEKQEKRNQERLKRREEREREEREKLRRSRSHSKNPKRSRSREHRRHRSRSMSRERKRRTRSKSREKRHRHRSRSSSRSRSRSHQRSRHSSRDRSRERSKRRSSKERFRDQDLASCDRDRSSRDRSPRDRDRKDKKRSYESANGRSEDRRSSEEREAGEI

Biological target: biotinylated JMJD6(81-96) peptide (human) (UniProt Q6NYC1)
Assay: affinity purification with mass spectrometry; biotinylated JMJD6(81-96) peptide on streptavidin beads, incubated with lysate of wild-type or JMJD6-defective HeLa cells overnight at 4 °C; eluted proteins propionylated, trypsin, LC-MSMS; only the target purified

| Molecule | binding |
| --- | --- |
| FACT (facilitates chromatin transcription) complex subunit protein SPT16 (from UniProt Q9Y5B9 1-1047) | binds |
| B1 | binds |
